Measured values from PMC12368222.
These are yes or no findings as the source states them, for the method shown. Some entries that bind do so weakly or less than the wild type.

Chains of the proteins cited; added tags and fusions are not shown. Residues count along the entry.
UniProt P00873, residues 46-185: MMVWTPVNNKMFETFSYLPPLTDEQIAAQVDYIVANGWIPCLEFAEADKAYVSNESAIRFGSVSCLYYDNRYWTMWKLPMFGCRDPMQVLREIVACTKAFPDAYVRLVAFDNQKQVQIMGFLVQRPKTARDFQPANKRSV

Molecular target: Rubisco large subunit (ribulose-1,5-bisphosphate carboxylase/oxygenase large subunit), Chlamydomonas reinhardtii (C. reinhardtii (endogenous in strain CC-1690)) (UniProt P00877)
Test: cryo-EM structure; in-cell cryo-electron tomography of cryo-FIB milled C. reinhardtii cells, subtomogram averaging, class 12, D4 symmetry applied, 8.1 Å, MDFF model fitted

binding | Substance
binds | Rubisco large subunit (ribulose-1,5-bisphosphate carboxylase/oxygenase large subunit), Chlamydomonas reinhardtii (from UniProt P00877 1-475)
binds | Rubisco small subunit (ribulose-1,5-bisphosphate carboxylase/oxygenase small subunit), Chlamydomonas reinhardtii (from UniProt P00873 46-185)
